# In all, about 320,000 compounds went through this assay and about 2,100 (0.66%) were called active. The inconclusive results got no clear call from the source; some entries with a clear call stand among them for comparison. Calls follow the shape of the dose curve; as a rule, active = well fitted inhibition curve with a large enough effect in the signal ratio, with a control signal flat (not every such curve was filed as active); inconclusive = small, poorly fitted or top-dose-only effect, or effect the other way, or a change in a side signal; inactive = flat fitted curve, though single readings scatter; the % refers to the signal ratio. A potency beside an inconclusive call is a rough fit, not a confirmed value.
# Assay: qHTS Assay for Lipid Storage Modulators in Drosophila S3 Cells
# Conditions: BODIPY lipid droplet fluorescence, 18-24 h, cells fed with added oleic acid; lipid storage change, negative = inhibition: at 46.1 µM (top of the series) unless noted
# Summary of the method: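 Drosophila S3 cells loaded with oleic acid (400 uM, as added) and compounds at several concentrations; lipid droplets imaged by 488-nm laser-scanning cytometry, 500–530 nm intensity and object ratio to cell channel. Percent activity normalized to 20 uM Triacsin C.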
# % is scaled to controls: 0 for no effect and ±100 for the full control effect; potency is read from the fitted curve at half-maximal effect.
SMILES,Potency,"lipid storage change, negative = inhibition"
O=C(CSc1ncn[nH]1)Nc1ccc2c(c1)OCCO2,"inconclusive: 1.3 µM [falling, partial curve]",–
O=S(=O)(CCOc1ccccc1)N1CCOCC1,–,inconclusive: -2.44%
Cc1cc(OCCCC(=O)NNC(=O)c2ccncc2)ccc1Cl,–,inconclusive: -61.5%
CCOC(=O)C1=C(Nc2ccccc2)CC(C)(O)C(C(=O)OCC)C1c1ccc(Br)cc1 (stereo unspecified),"inconclusive: 29.1 µM [falling, partial curve, poor fit]",–
CCOC(=O)C1(CCCc2ccccc2)CCN(C(=O)c2cc(C)nn2CC)CC1,–,inconclusive: -22.5%
Cc1ccsc1C1C(C(=O)O)c2ccccc2C(=O)N1C (stereo unspecified),"inconclusive: 2.31 µM [falling, single point]",–
Cc1ccc(NC(=O)c2nn(C34CC5CC(CC(C5)C3)C4)cc2[N+](=O)[O-])cc1,"inconclusive: 7.31 µM [falling, single point]",–
CN(CC(=O)N1CCN(c2ccc(F)cc2)CC1)S(=O)(=O)c1ccc(F)cc1,"inconclusive: 6.51 µM [falling, single point]",–
NNC(=O)C1CC1c1ccc(Cl)cc1 (stereo unspecified),–,inconclusive: 6.21%
Cc1cccc(C)c1CC(=O)N1CCOCC1,"inconclusive: 0.651 µM [activator, full curve]",–
O=C(NCCc1ccccn1)C1CCCN1S(=O)(=O)c1ccc(Cl)cc1 (stereo unspecified),–,inconclusive: 8.79%
COc1ccc(NC(=O)CSc2ccc(-c3ccco3)nn2)c(OC)c1,–,inconclusive: 31.4%
O=C(CCCN1C(=O)/C(=C/c2cccs2)SC1=S)NNC(=O)c1ccncc1,–,inactive
Cc1cc([N+](=O)[O-])cc(C)c1OCC(=O)N/N=C/c1ccc(OC(=O)c2ccccc2Br)cc1,–,inconclusive: 21.1%
Cc1ccc(S(=O)(=O)Nc2c(NC3CCCCC3)c3ccccc3oc2=O)c(C)c1,"inconclusive: 11.6 µM [activator, partial curve]",–
CC(C)Nc1nc(NC(C)C)nc(N(C)C(N)=O)n1,–,inconclusive: 27.4%
COc1ccccc1N1CCN(CC(=O)Nc2ccccc2C(=O)NC(C)c2ccccc2)CC1 (stereo unspecified),–,inconclusive: 11.3%
O=C1C(Cl)=C(Nc2ccc3cn[nH]c3c2)C(=O)c2ccccc21,active: 5.8 µM,–
O=C(/C=C\Nc1ccc2c(c1)OCO2)c1cccs1,–,inconclusive: 2.42%
CC(C)c1ccc(NC2CCCN(C(=O)CCCn3cncn3)C2)cc1 (stereo unspecified),"inconclusive: 29.1 µM [activator, single point]",–
CS(=O)(=O)N(CC(=O)NCCSCc1ccccc1)c1ccccc1Br,–,inconclusive: 51.8%

# Pulled by compound from above, 2 records:
SMILES,Potency,"lipid storage change, negative = inhibition"
O=C1C(Cl)=C(Nc2ccc3cn[nH]c3c2)C(=O)c2ccccc21,active: 5.8 µM,–
O=C(CSc1ncn[nH]1)Nc1ccc2c(c1)OCCO2,"inconclusive: 1.3 µM [falling, partial curve]",–

# From PubChem BioAssay AID2685 (National Center for Advancing Translational Sciences (NCATS), 2010)
